Results published in the supplement of paper PMC10849652.
The other results are listed elsewhere or left out.

Amino acid sequences for entries named in this document (tags omitted). A change or cut given only in a name is not applied to a line headed by its entry.
UniProt Q9Y3L5: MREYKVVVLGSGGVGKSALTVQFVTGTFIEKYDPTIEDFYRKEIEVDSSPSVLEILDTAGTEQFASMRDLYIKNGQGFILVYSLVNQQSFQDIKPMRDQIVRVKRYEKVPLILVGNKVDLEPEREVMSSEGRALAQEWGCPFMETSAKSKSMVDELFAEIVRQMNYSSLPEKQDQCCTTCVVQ
UniProt Q53S08: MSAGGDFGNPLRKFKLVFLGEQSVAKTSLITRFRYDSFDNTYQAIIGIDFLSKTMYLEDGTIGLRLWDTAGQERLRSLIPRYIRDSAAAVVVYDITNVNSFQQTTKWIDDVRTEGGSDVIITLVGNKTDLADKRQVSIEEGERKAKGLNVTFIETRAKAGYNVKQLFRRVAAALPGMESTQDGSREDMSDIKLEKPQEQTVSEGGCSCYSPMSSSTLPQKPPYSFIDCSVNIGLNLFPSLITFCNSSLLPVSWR
UniProt Q6WKZ4: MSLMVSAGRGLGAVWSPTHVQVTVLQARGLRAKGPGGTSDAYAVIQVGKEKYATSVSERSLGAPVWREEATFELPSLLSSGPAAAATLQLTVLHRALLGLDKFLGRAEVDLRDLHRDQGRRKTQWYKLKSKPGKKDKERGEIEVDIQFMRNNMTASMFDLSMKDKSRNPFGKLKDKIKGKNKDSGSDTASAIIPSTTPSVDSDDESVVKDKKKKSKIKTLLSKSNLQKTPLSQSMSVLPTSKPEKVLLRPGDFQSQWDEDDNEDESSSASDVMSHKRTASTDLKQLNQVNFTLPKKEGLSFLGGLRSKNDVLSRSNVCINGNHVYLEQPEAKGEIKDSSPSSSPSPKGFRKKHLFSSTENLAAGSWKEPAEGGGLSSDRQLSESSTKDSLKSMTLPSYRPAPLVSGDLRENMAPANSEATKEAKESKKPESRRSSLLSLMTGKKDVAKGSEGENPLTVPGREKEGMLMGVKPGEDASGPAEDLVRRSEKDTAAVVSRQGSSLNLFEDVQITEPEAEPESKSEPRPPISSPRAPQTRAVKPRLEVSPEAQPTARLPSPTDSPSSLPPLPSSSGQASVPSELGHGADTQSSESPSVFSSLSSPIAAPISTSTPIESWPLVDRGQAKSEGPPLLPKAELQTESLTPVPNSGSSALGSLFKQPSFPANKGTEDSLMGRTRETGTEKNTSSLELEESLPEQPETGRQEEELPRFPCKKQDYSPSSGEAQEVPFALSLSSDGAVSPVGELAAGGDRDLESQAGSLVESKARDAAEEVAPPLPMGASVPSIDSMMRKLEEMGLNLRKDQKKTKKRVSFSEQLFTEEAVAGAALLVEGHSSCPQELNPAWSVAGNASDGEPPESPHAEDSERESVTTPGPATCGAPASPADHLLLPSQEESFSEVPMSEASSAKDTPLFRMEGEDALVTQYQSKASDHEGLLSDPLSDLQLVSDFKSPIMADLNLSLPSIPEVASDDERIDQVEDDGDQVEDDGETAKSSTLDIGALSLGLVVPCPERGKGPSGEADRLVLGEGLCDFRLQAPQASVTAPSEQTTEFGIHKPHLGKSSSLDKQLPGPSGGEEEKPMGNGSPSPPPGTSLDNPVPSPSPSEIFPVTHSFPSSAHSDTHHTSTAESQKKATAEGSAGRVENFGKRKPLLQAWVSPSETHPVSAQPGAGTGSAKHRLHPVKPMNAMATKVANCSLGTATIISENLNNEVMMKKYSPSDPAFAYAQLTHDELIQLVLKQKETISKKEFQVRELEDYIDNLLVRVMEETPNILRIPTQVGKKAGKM
UniProt Q9NW64: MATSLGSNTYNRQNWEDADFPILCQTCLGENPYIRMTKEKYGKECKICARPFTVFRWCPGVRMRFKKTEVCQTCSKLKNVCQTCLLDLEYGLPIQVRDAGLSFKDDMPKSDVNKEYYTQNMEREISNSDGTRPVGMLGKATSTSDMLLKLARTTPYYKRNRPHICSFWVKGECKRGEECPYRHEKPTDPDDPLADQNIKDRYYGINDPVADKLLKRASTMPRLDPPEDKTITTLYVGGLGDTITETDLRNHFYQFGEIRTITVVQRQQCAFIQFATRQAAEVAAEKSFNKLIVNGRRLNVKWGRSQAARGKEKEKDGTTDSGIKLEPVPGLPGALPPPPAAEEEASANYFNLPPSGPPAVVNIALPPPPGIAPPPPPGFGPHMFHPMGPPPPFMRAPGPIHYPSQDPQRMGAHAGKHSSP
UniProt P47224: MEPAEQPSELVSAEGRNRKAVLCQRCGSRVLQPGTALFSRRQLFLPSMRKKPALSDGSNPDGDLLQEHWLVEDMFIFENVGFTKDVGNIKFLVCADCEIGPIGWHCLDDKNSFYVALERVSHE
UniProt P46060: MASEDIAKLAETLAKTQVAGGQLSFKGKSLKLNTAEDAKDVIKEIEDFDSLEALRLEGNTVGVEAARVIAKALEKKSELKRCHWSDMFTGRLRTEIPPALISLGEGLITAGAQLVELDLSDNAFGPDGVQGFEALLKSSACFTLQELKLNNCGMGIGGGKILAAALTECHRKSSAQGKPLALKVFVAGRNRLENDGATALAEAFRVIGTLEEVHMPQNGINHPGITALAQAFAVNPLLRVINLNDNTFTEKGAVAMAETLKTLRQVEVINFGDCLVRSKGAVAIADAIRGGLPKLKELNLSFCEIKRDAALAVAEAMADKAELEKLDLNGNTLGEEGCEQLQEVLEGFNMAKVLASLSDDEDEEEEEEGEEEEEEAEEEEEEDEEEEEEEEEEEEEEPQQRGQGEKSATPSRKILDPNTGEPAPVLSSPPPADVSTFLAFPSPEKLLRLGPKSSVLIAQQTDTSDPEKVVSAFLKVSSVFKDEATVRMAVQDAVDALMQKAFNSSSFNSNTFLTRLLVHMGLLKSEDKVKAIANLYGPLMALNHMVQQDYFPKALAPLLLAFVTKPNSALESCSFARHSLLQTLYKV
UniProt P52306: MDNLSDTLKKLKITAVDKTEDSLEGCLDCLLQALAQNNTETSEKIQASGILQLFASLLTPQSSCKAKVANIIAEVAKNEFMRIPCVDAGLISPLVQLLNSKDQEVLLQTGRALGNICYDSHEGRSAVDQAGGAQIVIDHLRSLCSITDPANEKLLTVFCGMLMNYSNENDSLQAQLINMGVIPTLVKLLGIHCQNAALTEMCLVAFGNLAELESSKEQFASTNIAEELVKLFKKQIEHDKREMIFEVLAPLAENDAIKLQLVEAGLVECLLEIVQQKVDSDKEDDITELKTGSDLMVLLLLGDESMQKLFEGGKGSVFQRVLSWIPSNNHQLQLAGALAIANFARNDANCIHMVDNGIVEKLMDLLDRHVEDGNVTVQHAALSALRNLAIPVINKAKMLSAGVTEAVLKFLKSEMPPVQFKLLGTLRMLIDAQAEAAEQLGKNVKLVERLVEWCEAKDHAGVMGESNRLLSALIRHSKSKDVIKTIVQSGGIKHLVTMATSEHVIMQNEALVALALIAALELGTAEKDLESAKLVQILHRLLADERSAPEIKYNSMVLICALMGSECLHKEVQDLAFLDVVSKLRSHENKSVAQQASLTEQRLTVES
UniProt P61225: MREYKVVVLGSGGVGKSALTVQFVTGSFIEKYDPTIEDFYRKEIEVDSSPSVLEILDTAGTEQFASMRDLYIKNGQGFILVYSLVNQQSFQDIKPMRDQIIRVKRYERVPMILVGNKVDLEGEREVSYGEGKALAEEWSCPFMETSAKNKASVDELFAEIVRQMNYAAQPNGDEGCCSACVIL
UniProt Q15042: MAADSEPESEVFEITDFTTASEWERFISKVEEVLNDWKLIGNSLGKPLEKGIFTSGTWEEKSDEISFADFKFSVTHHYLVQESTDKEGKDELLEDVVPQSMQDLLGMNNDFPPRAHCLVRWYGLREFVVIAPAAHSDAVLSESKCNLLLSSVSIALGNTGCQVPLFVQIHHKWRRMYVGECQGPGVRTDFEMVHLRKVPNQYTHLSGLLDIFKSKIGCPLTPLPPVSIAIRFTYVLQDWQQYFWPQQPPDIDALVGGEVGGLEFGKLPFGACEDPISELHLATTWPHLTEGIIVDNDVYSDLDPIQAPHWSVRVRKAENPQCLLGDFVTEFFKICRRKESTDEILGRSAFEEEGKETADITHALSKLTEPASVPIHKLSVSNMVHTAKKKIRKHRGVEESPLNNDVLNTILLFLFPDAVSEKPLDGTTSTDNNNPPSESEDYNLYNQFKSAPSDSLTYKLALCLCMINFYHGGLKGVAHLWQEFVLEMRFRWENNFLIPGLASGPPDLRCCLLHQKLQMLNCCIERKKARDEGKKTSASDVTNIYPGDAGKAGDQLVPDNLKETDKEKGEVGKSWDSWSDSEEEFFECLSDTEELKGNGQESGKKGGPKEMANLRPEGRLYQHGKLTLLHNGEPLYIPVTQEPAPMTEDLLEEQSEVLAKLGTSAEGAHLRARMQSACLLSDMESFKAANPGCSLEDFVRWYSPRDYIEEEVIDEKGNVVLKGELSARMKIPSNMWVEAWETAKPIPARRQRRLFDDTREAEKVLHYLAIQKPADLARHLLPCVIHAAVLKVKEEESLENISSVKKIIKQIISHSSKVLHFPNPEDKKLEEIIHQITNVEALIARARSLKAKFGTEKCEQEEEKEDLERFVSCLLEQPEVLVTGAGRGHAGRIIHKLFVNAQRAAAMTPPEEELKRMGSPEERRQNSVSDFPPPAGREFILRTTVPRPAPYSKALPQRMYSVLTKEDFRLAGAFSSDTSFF
UniProt P51148: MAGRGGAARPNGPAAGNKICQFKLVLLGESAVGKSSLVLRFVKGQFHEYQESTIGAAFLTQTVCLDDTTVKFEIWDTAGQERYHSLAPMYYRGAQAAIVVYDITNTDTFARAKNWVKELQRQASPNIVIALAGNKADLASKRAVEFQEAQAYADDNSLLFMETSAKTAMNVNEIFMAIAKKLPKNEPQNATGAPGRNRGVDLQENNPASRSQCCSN
UniProt Q3YEC7: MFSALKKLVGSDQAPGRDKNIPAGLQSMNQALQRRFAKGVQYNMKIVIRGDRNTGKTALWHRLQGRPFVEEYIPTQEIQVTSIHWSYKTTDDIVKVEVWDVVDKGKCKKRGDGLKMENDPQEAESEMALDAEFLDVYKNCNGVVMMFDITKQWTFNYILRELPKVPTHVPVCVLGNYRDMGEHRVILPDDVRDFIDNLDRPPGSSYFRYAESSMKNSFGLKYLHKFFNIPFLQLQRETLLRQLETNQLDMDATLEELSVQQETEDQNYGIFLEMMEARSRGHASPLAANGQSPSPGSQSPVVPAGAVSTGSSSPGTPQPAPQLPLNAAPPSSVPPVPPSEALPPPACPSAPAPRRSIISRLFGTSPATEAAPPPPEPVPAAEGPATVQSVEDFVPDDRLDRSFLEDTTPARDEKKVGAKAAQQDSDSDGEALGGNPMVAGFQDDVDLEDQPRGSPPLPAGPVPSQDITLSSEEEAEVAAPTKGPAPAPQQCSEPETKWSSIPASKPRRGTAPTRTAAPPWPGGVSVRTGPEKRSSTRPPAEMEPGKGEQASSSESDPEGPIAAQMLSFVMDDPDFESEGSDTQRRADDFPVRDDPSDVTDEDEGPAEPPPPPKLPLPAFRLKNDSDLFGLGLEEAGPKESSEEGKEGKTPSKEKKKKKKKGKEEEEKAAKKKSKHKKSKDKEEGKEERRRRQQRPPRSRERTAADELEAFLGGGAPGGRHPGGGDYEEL
UniProt Q8WWW0: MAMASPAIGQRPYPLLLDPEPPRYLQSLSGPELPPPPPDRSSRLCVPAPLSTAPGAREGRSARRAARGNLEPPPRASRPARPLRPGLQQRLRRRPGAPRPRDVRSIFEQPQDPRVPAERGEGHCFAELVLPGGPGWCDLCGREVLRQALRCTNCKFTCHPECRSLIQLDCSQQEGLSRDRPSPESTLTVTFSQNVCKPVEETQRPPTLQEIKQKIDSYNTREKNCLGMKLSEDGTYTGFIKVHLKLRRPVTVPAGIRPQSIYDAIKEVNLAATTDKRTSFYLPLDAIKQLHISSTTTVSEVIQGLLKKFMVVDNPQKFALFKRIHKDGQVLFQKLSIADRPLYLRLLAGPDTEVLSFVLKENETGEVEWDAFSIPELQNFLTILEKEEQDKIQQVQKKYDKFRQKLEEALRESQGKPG
UniProt P53611: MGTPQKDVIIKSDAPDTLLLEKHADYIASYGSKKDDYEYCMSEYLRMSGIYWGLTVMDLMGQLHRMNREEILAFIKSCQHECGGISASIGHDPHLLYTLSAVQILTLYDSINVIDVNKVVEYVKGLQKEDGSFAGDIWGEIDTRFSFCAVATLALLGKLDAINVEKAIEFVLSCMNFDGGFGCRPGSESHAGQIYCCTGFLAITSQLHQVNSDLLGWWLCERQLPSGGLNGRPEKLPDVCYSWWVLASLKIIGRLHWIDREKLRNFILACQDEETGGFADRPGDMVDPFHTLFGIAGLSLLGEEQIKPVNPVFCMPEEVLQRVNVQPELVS
UniProt P11233: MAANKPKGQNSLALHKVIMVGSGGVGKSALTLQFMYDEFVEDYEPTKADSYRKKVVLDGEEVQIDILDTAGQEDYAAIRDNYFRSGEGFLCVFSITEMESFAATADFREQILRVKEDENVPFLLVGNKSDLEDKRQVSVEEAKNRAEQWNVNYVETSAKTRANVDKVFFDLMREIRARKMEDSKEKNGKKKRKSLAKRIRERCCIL

Compound: C1=CC=C(C=C1)C2=NC(=C(N2)C3=CC=NC=C3)C4=CC(=C(C=C4)Cl)O
Test: log2 fold change, soluble protein after heating vs DMSO (PISA); higher = thermal stabilisation; K562 cells, 10 uM, 30 min; active = over 0.2 and 3.5 SD of the protein, either way, in both replicates (recomputed)
Procedure, shortened: (§1)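 Thermal stability values are relative to control samples and come from duplicates. They are expressed as log2 fold changes. For measurement, K562 cells (2×10^6 cells/mL) received 10 μM compound for 30 min, and aliquots were heated for 3 min over 48°C-58°C, pooled, and extracted at 4°C in PBS with 0.5% NP-40. Soluble protein, the supernatant after 21,000xg for 90 min, was quantified by TMTpro 16plex LC-MS/MS with equalised channel sums.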

log2 fold change, inactive:
RABGEF1 isoform 3 (UniProt Q9UJ41) -0.034
RAP2C (UniProt Q9Y3L5) 0.026
RBBP7 (UniProt Q16576) -0.109
RBM28 (UniProt Q9NW13) 0.054
RAB10 (UniProt P61026) 0.002
RAB6D (UniProt Q53S08) -0.005
RAB3IL1 (UniProt Q8TBN0) -0.02
RAB11FIP1 (UniProt Q6WKZ4) 0.031
RAB30 (UniProt Q15771) 0.036
RAB8B (UniProt Q92930) 0.029
RAD1 (UniProt O60671) 0.027
RALB isoform 2 (UniProt P11234) -0.025
RARS (UniProt P54136) -0.046
RAB4A (UniProt P20338) -0.003
RBM22 (UniProt Q9NW64) -0.084
RBM33 (UniProt Q96EV2) 0.001
RABIF (UniProt P47224) 0
RANGAP1 (UniProt P46060) 0.014
RAP1GDS1 isoform 5 (UniProt P52306) -0.016
RAP2B (UniProt P61225) 0.008
RAB3GAP1 (UniProt Q15042) -0.01
RAC2 (UniProt P15153) -0.008
RAB5C isoform 2 (UniProt P51148) 0.012
RALGAPA1 isoform 6 (UniProt Q6GYQ0) 0.006
RABL6 (UniProt Q3YEC7) -0.015
RASSF5 (UniProt Q8WWW0) 0.082
RAVER1 (UniProt E9PAU2) 0.257
RABGGTB (UniProt P53611) 0.054
RALA (UniProt P11233) -0.076
RAB29 (UniProt O14966) -0.037
RB1 (UniProt P06400) 0.034
RAB6B (UniProt Q9NRW1) 0.032

Compound: C1=CC=C2C(=C1)C3=NNC4=CC=CC(=C43)C2=O
Test: as above
Procedure, shortened: as §1

log2 fold change, inactive:
RABGEF1 isoform 3 (UniProt Q9UJ41) -0.027
RAP2C (UniProt Q9Y3L5) 0.167
RBBP7 (UniProt Q16576) 0.028
RBM28 (UniProt Q9NW13) -0.057
RAB10 (UniProt P61026) -0.023
RAB6D (UniProt Q53S08) 0.051
RAB3IL1 (UniProt Q8TBN0) -0.039
RAB11FIP1 (UniProt Q6WKZ4) 0.009
RAB30 (UniProt Q15771) -0.179
RAB8B (UniProt Q92930) 0.012
RAD1 (UniProt O60671) 0.003
RALB isoform 2 (UniProt P11234) -0.065
RARS (UniProt P54136) -0.005
RAB4A (UniProt P20338) -0.031
RBM22 (UniProt Q9NW64) -0.051
RBM33 (UniProt Q96EV2) -0.114
RABIF (UniProt P47224) -0.049
RANGAP1 (UniProt P46060) 0.029
RAP1GDS1 isoform 5 (UniProt P52306) -0.038
RAP2B (UniProt P61225) 0.009
RAB3GAP1 (UniProt Q15042) -0.023
RAC2 (UniProt P15153) -0.06
RAB5C isoform 2 (UniProt P51148) 0.015
RALGAPA1 isoform 6 (UniProt Q6GYQ0) 0.029
RABL6 (UniProt Q3YEC7) -0.006
RASSF5 (UniProt Q8WWW0) -0.07
RAVER1 (UniProt E9PAU2) -0.084
RABGGTB (UniProt P53611) 0.047
RALA (UniProt P11233) -0.045
RAB29 (UniProt O14966) 0.034
RB1 (UniProt P06400) -0.114
RAB6B (UniProt Q9NRW1) 0.04

Compound: C1CCN(C1)C(=O)NC2=CC=CC(=C2)NC3=NC=C(C(=N3)NCCC4=CN=CN4)Br
Test: as above
Procedure, shortened: as §1

log2 fold change, inactive:
RABGEF1 isoform 3 (UniProt Q9UJ41) -0.035
RAP2C (UniProt Q9Y3L5) -0.008
RAB10 (UniProt P61026) 0.016
RAB6D (UniProt Q53S08) -0.065
RAB3IL1 (UniProt Q8TBN0) -0.004
RAB11FIP1 (UniProt Q6WKZ4) -0.049
RAB8B (UniProt Q92930) 0.027
RAD1 (UniProt O60671) 0.07
RALB isoform 2 (UniProt P11234) -0.042
RARS (UniProt P54136) 0.07
RAB4A (UniProt P20338) 0.024
RBM22 (UniProt Q9NW64) 0
RBM33 (UniProt Q96EV2) 0.034
RABIF (UniProt P47224) 0.002
RANGAP1 (UniProt P46060) -0.007
RAP1GDS1 isoform 5 (UniProt P52306) -0.023
RAP2B (UniProt P61225) -0.04
RAB3GAP1 (UniProt Q15042) -0.064
RAC2 (UniProt P15153) 0.01
RAB5C isoform 2 (UniProt P51148) -0.003
RALGAPA1 isoform 6 (UniProt Q6GYQ0) 0.104
RABL6 (UniProt Q3YEC7) -0.022
RASSF5 (UniProt Q8WWW0) 0.052
RAVER1 (UniProt E9PAU2) -0.05
RABGGTB (UniProt P53611) -0.086
RALA (UniProt P11233) -0.066
RAB29 (UniProt O14966) -0.06
RB1 (UniProt P06400) -0.065
RAB6B (UniProt Q9NRW1) -0.015
